According to the supplement of paper PMC10849652:
The list shows a part of the results. Residues, ends and D or L forms follow the SMILES beside them. *: point of attachment. Cbz = O=C(OCc1ccccc1)*

By UniProt entry, the sequences of proteins in these tests, tags left out. Where a name states a change or a piece, a line headed by the entry shows the natural chain unless it says otherwise.
UniProt Q7Z5U6: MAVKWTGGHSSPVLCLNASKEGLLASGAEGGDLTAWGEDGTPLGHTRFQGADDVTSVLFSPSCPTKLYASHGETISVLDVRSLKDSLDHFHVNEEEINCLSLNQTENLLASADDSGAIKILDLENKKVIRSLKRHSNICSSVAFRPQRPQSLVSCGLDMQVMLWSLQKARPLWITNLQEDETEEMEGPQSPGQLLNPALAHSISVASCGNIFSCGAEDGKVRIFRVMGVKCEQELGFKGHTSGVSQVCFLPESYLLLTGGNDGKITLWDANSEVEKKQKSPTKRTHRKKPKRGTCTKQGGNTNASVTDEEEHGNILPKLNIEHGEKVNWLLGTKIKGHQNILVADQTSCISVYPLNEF
UniProt Q9Y3C0: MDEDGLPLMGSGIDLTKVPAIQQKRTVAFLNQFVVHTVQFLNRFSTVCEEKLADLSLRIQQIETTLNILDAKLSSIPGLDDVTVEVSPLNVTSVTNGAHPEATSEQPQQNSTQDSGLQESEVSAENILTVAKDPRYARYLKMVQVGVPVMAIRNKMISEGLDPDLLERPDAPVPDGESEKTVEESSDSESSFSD
UniProt Q99986: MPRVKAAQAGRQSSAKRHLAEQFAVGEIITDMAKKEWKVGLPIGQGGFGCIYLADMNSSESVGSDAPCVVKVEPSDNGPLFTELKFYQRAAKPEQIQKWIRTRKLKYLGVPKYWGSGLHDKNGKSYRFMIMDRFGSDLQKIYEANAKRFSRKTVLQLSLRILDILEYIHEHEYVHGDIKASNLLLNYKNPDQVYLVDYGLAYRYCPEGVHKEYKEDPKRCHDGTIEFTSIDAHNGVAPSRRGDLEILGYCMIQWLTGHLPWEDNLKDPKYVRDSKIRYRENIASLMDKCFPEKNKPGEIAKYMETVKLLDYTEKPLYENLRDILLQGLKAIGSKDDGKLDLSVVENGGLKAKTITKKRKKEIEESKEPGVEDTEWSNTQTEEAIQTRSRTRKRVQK
UniProt Q9HAD4: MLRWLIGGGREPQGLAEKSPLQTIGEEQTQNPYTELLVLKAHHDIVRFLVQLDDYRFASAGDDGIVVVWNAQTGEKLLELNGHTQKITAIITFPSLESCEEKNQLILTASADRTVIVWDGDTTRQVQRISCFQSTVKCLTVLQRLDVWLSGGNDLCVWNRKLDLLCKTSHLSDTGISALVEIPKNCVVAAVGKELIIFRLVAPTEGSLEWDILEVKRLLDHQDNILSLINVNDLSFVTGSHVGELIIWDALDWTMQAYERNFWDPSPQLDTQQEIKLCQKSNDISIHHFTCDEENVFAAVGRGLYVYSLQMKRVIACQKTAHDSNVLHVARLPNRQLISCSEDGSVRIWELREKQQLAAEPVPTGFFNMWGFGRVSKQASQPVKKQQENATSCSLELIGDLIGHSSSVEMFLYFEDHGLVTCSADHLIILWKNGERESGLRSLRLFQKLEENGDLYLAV
UniProt O43379: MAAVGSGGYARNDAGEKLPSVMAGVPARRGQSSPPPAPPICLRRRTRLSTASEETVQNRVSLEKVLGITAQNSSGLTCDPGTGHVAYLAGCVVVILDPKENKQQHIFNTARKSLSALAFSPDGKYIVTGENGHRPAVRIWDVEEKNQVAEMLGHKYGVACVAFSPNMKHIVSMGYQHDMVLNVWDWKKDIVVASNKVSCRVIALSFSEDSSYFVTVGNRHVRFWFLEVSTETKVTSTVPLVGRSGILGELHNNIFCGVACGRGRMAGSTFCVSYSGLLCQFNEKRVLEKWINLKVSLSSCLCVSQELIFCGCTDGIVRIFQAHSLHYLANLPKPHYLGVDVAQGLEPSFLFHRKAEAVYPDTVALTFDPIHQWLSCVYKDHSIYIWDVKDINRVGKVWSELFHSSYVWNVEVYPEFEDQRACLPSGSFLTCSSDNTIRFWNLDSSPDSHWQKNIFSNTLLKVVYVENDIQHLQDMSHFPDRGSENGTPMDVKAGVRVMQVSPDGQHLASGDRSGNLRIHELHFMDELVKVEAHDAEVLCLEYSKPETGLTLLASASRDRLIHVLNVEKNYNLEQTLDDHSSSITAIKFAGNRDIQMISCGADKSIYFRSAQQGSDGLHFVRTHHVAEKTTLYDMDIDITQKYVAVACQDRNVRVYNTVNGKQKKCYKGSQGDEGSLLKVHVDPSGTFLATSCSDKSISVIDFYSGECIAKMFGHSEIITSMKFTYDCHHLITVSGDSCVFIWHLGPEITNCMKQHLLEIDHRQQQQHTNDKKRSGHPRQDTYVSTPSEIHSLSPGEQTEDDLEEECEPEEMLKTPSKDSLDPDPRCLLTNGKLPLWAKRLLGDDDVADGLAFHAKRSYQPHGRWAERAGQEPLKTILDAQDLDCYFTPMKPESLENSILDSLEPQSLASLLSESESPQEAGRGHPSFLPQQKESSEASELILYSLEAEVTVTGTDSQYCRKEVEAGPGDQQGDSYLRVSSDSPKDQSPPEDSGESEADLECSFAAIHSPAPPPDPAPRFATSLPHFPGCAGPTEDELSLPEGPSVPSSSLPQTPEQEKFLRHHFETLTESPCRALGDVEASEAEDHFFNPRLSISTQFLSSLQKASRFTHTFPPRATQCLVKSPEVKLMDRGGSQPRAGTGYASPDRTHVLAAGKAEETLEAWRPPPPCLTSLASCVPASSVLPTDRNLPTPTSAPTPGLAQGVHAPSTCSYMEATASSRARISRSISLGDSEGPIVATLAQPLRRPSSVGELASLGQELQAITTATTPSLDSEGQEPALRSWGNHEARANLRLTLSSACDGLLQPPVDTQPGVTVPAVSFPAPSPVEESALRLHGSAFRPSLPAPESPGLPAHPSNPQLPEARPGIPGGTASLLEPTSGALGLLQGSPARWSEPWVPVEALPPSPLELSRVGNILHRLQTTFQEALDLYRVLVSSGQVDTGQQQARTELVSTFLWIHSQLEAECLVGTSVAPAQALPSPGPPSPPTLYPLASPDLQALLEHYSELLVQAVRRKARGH
UniProt O75717: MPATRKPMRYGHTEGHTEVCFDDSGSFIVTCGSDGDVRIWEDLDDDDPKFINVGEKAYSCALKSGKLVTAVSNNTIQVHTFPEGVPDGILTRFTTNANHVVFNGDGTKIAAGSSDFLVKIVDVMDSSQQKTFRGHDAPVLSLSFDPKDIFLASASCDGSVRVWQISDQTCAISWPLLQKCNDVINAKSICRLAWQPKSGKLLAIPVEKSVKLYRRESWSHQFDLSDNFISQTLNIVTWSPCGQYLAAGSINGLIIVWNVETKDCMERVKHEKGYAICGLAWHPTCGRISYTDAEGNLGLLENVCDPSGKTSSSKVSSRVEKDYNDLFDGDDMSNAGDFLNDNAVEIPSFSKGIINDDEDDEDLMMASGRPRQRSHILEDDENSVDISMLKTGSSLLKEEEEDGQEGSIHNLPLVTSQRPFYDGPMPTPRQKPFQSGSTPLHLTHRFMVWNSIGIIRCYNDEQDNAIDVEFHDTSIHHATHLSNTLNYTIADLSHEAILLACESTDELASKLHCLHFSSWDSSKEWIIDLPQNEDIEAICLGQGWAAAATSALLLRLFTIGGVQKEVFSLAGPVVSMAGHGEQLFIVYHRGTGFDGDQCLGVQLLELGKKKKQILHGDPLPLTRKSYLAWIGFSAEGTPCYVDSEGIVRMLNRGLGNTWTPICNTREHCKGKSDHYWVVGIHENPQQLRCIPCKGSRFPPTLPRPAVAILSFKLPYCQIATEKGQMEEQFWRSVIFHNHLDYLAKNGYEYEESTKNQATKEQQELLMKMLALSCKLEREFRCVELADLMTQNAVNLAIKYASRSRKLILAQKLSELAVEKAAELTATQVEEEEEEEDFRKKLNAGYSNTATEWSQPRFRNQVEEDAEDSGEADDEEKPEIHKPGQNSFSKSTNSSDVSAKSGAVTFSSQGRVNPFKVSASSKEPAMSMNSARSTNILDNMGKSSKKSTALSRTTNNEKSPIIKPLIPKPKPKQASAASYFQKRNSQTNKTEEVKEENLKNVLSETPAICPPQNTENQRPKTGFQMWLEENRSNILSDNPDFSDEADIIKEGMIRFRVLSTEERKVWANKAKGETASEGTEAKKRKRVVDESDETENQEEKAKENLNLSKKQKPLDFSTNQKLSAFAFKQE
UniProt Q3ZAQ7: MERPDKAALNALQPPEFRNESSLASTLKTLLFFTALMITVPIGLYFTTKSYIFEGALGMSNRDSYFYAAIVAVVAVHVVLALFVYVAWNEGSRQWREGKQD

How the values were obtained:
Assay in all cases: log2 fold change, soluble protein after heating vs DMSO (PISA); higher = thermal stabilisation; K562 cells, 10 uM, 30 min; active = over 0.2 and 3.5 SD of the protein, either way, in both replicates (recomputed)
erlotinib = compound: C#Cc1cccc(Nc2ncnc3cc(OCCOC)c(OCCOC)cc23)c1 [erlotinib]
In short: (§1)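 Soluble protein was quantified by TMTpro 16plex LC-MS/MS after channel sums were equalised. It was obtained as the supernatant after 21,000xg for 90 min from pooled aliquots of K562 cells (2×10^6 cells/mL, 10 μM compound, 30 min) heated for 3 min across 48°C-58°C and extracted in PBS with 0.5% NP-40 at 4°C. Thermal stability values are relative to control samples and come from duplicates. They are given as log2 fold changes.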

[1] = compound: C/C(=N\NC(=O)C1=CC(=CC=C1)S(=O)(=O)N2CCOCC2)/C3=C(C=CC(=C3)Cl)O
In short: as §1

[2] = compound: C1=CC(=CC=C1C2=NC3=C(N2)C=C(C=C3)C(=O)N)OC4=CC=C(C=C4)Cl
In short: as §1

[3] = compound: C1=CC2=C(C=CC(=C2)/C=C\3/C(=O)NC(=NCC4=CC=CS4)S3)N=C1
In short: as §1

[4] = compound: C1=CC2=NC=CN=C2C=C1/C=C/3\C(=O)NC(=O)S3
In short: as §1

[5] = compound: C1=CC=C(C=C1)C2=NC(=C(N2)C3=CC=NC=C3)C4=CC(=C(C=C4)Cl)O
In short: as §1

[6] = compound: C1=CC=C2C(=C1)C3=NNC4=CC=CC(=C43)C2=O
In short: as §1

[7] = compound: C1CCN(C1)C(=O)NC2=CC=CC(=C2)NC3=NC=C(C(=N3)NCCC4=CN=CN4)Br
In short: as §1

[8] = compound: C1CN(CCC1(CC2=CC=C(C=C2)Cl)N)C3=NC=NC4=C3C=CN4
In short: as §1

IRAK-1-4 Inhibitor I = compound: C1COCCN1CCN2C3=CC=CC=C3N=C2NC(=O)C4=CC(=CC=C4)[N+](=O)[O-] [IRAK-1-4 Inhibitor I]
In short: as §1

ibrutinib = compound: C=CC(=O)N1CCC[C@@H](n2nc(-c3ccc(Oc4ccccc4)cc3)c3c(N)ncnc32)C1 [ibrutinib]
In short: as §1

[9] = compound: CC(=O)c1cnc2ccc(-c3cc(Cl)c(O)c(Cl)c3)nc2c1N[C@H]1CC[C@H](CN(C)C)CC1
In short: as §1

ralimetinib = compound: CC(C)(C)Cn1c(N)nc2ccc(-c3[nH]c(C(C)(C)C)nc3-c3ccc(F)cc3)nc21 [ralimetinib]
In short: as §1

[10] = compound: CC(C)C1=C2N=C(C=C(N2N=C1)NCC3=CC=CC=C3)NCCCCCCN
In short: as §1

[11] = compound: CC(C)C[C@@H](C=O)NC(=O)[C@H](CC(C)C)NC(=O)[C@H](CC(C)C)NC(=O)OCc1ccccc1
In short: as §1

pinometostat = compound: CC(C)N(C[C@H]1O[C@@H](n2cnc3c(N)ncnc32)[C@H](O)[C@@H]1O)[C@H]1C[C@@H](CCc2nc3cc(C(C)(C)C)ccc3[nH]2)C1 [pinometostat]
In short: as §1

[12] = compound: CC1=C(C2=C(C=C1)C(=O)C3=CC=CC=C3N2CCCN)C
In short: as §1

[13] = compound: C1=CC(=C(C=C1Cl)C2=NC3=NC=CN=C3C(=N2)NC4=CC=NC=C4)F
In short: as §1

[14] = compound: CC(C)(O)CC(=O)NCCn1ccc2ncnc(Nc3ccc(Oc4cccc(C(F)(F)F)c4)c(Cl)c3)c21
In short: as §1

[15] = compound: CC1=C(C(CC(=O)N1)C2=CC=C(C=C2)C(F)(F)F)C(=O)NC3=C(C=C4C(=C3)C=NN4)F
In short: as §1

Measured: log2 fold change

VKORC1 (UniProt Q9BQB6)
inactive: erlotinib 0.048 | [1] -0.048 | [2] -0.019 | [3] 0.175 | [4] 0.113 | [5] 0.044 | [6] 0.151 | [7] -0.049 | [8] 0.005 | IRAK-1-4 Inhibitor I -0.056 | ibrutinib 0.024 | [9] -0.033 | ralimetinib -0.052 | [10] -0.306 | [11] -0.029 | pinometostat 0.092 | [12] 0.049

VCX3B (UniProt Q9H321)
inactive: erlotinib 0.057 | [1] -0.022 | [13] -0.028 | [2] 0.013 | [3] 0.042 | [4] -0.085 | [6] 0.006 | [7] 0.029 | [8] -0.031 | ibrutinib 0.021 | [9] -0.187 | [14] 0.054 | [10] 0.032 | [15] 0.017 | [12] -0.009

WDR53 (UniProt Q7Z5U6)
inactive: erlotinib -0.006 | [1] 0.002 | [2] -0.051 | [3] -0.066 | [4] 0.061 | [5] 0.075 | [6] 0.008 | [7] 0.032 | [8] -0.035 | IRAK-1-4 Inhibitor I 0.075 | ibrutinib 0.007 | [9] 0.028 | ralimetinib -0.057 | [10] 0.139 | [11] 0.025 | pinometostat -0.047 | [12] 0.108

WDR61 (UniProt Q9GZS3)
inactive: erlotinib 0.021 | [1] 0.066 | [13] 0.051 | [2] 0.027 | [3] 0.057 | [4] -0.016 | [5] 0.01 | [6] 0 | [7] 0.077 | [8] 0.026 | IRAK-1-4 Inhibitor I 0.037 | ibrutinib -0.015 | [9] -0.057 | ralimetinib -0.049 | [14] 0.008 | [10] -0.016 | [11] -0.009 | pinometostat 0.028 | [12] 0.004

WASHC3 (UniProt Q9Y3C0)
inactive: erlotinib 0.029 | [1] -0.015 | [13] 0.053 | [2] 0.007 | [3] 0.12 | [4] 0.036 | [5] 0.017 | [6] -0.114 | [7] -0.041 | [8] 0.059 | IRAK-1-4 Inhibitor I 0.096 | ibrutinib 0.015 | [9] 0.023 | ralimetinib -0.033 | [14] 0.024 | [10] -0.166 | [11] -0.041 | pinometostat -0.074 | [12] 0.032

VRK1 (UniProt Q99986)
active: [12] 0.433
inactive: erlotinib 0.087 | [1] -0.055 | [13] 0.119 | [2] -0.016 | [3] 0.038 | [4] -0.024 | [5] -0.039 | [6] 0.078 | [7] -0.044 | [8] -0.045 | IRAK-1-4 Inhibitor I -0.041 | ibrutinib 0.032 | [9] 0.338 | ralimetinib -0.033 | [14] -0.32 | [10] -0.013 | [11] 0.055 | pinometostat -0.008

WDR41 (UniProt Q9HAD4)
active: [10] -0.271
inactive: erlotinib 0.039 | [1] 0.038 | [13] 0.128 | [2] 0.026 | [3] -0.016 | [4] 0.019 | [5] -0.005 | [6] -0.07 | [7] -0.012 | [8] 0.073 | IRAK-1-4 Inhibitor I -0.024 | ibrutinib -0.022 | [9] -0.023 | ralimetinib -0.036 | [14] -0.077 | [11] -0.026 | pinometostat 0.012 | [12] -0.001

WDR62 isoform 4 (UniProt O43379)
inactive: erlotinib 0.046 | [1] 0.015 | [13] -0.118 | [2] 0.055 | [3] -0.016 | [4] 0.046 | [5] -0.05 | [6] -0.041 | [7] 0 | [8] 0.014 | IRAK-1-4 Inhibitor I 0.085 | ibrutinib -0.069 | ralimetinib 0.003 | [14] -0.003 | [10] -0.085 | [11] 0.042 | pinometostat 0.062 | [12] -0.176
active: [9] -0.579

WDHD1 (UniProt O75717)
inactive: erlotinib 0.007 | [1] 0.173 | [13] 0.093 | [2] -0.002 | [3] 0.026 | [4] 0.038 | [5] -0.02 | [6] -0.028 | [7] -0.031 | [8] -0.013 | IRAK-1-4 Inhibitor I -0.055 | ibrutinib 0.006 | [9] -0.087 | ralimetinib -0.038 | [14] -0.065 | [10] -0.125 | [11] 0 | pinometostat -0.03 | [12] -0.063

2 consecutive entries from above:
WDR62 isoform 4 (UniProt O43379)
inactive: erlotinib 0.046 | [1] 0.015 | [13] -0.118 | [2] 0.055 | [3] -0.016 | [4] 0.046 | [5] -0.05 | [6] -0.041 | [7] 0 | [8] 0.014 | IRAK-1-4 Inhibitor I 0.085 | ibrutinib -0.069 | ralimetinib 0.003 | [14] -0.003 | [10] -0.085 | [11] 0.042 | pinometostat 0.062 | [12] -0.176
active: [9] -0.579

WDHD1 (UniProt O75717)
inactive: erlotinib 0.007 | [1] 0.173 | [13] 0.093 | [2] -0.002 | [3] 0.026 | [4] 0.038 | [5] -0.02 | [6] -0.028 | [7] -0.031 | [8] -0.013 | IRAK-1-4 Inhibitor I -0.055 | ibrutinib 0.006 | [9] -0.087 | ralimetinib -0.038 | [14] -0.065 | [10] -0.125 | [11] 0 | pinometostat -0.03 | [12] -0.063

Next part:

VEGFA (UniProt H0YBI8)
inactive: erlotinib 0.044 | [1] 0.063 | [2] -0.03 | [3] -0.011 | [4] 0.008 | [5] 0.003 | [6] -0.173 | [7] 0.019 | [8] 0.056 | IRAK-1-4 Inhibitor I -0.178 | ibrutinib 0.07 | [9] -0.338 | ralimetinib 0.053 | [10] 0.183 | [11] -0.056 | pinometostat 0.145 | [15] -0.222 | [12] -0.258

VMA21 (UniProt Q3ZAQ7)
inactive: erlotinib 0.013 | [1] 0.047 | [13] 0.068 | [2] 0.049 | [3] -0.042 | [4] -0.021 | [6] -0.039 | IRAK-1-4 Inhibitor I 0.146 | ibrutinib 0.052 | [9] 0.067 | [14] -0.074 | [10] 0.061 | pinometostat 0.043 | [15] 0.008
